Experimental data from patent publication US20260035450A1.
No constants are given. Whether binding was seen depends on the method and setting. Some entries that bind do so weakly or less than the wild type. Tags and fused reporters may be left off the sequences shown.

Molecular target: T1, Full-length His6-tagged hANGPTL3 (human) (UniProt Q9Y5C1)
T1 sequence: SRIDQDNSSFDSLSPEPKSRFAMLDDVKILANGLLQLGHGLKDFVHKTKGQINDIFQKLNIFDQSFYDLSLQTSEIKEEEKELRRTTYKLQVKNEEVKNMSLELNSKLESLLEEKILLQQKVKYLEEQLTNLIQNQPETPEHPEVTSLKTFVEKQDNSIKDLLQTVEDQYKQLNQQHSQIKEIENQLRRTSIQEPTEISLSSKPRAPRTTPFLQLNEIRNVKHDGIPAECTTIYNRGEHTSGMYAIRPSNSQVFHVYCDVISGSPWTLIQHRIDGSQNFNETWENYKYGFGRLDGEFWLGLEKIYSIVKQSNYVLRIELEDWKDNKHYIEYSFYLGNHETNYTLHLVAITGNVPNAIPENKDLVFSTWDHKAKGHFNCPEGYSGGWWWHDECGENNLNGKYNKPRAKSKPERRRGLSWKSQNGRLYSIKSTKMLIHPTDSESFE
Test: SPR, His6-tagged hANGPTL3 captured by anti-His antibody, antibodies flowed at pH 6.0 and pH 7.4

B1: Antibodies containing the variable domains of the heavy and light chains of tmAb0.1 and tmAb1 (antibody, V domains shown)
VH: EVQLLESGGGLVQPGGSLRLSCAASGFNFRSYWMTWVRQAPGKGLEWVSSISSHSTYIYYADSVKGRFTISRDNSKNTLYLQMNSLRAEDTATYYCAREGWYDNWFDPWGQGTLVTVSS
VL: EIVLTQSPGTLSLSPGERATLSCRASQNIRSPYLAWYQQKPGQAPRLLIYGVSSRAAGIPDRFSGSGSGTDFTLTISRLEPEDFAVYYCQQYDDHPYTFGQGTKLEIK
- binding: binds
